In patent US20090088412A1, “COMPOSITION FOR TREATING CANCER CELLS AND PREPARATION METHOD THEREOF” (KAOHSIUNG MEDICAL UNIVERSITY, priority 2007, published 2009):
Some entries share one result that the patent states for a list of compounds. For at least one compound, name, drawing or mass did not settle the structure.

Tested on: 5 target cancer cell lines (MCF-7, MDA-MB-231, Hep G2, Hep 3B, A549)
Assay: MTT cytotoxicity test, summary over 5 target cancer cell lines
Type: cell-based, human
Settings: text summary of table 1, all 5 cancer cell lines

How did the “IC50 in 5 target cancer cell lines” value turn out when CC1=C(C)C(=O)O[C@@H]([C@@H](C)[C@@]2(O)CC[C@H]3[C@@H]4C[C@H]5O[C@]56[C@@H](O)C=CC(=O)[C@]6(C)[C@H]4CC[C@@]32C)C1 [Compound 14, Tubocapsanolide F] was run?
Its value is less than 2 µg/mL.
